{"source": "PubChem BioAssay AID602196 (INSERM, 2012)", "screen": "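Genes whose knock-down alters cisplatin killing of lung cancer cells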", "system": "human A549 lung cancer cells", "reagents": "siRNA pair against human genes", "timing": "48 h transfection before cisplatin; time from cisplatin to read-out not stated", "conditions": "cisplatin at a dose killing half of control-siRNA cells; exact dose and duration not given", "measured": "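Shift in cisplatin death relative to control siRNA, from -50 (all cells die) to +50 (no cells die); siRNAs harmful on their own scored 0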", "scale": "two-siRNA summed score (-2 to +2): higher = both siRNAs protect from cisplatin killing; -2 means both sensitise; mean protection from cisplatin (shift in death): higher = protection from cisplatin killing", "rule for the call": "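siRNAs harmful alone (LDH or WST-1) get 0; others get +1 for less and -1 for more cisplatin killing; genes are active when the two siRNAs give the same sign, summing to ±2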", "calls": "active = both siRNAs shift cisplatin killing the same way; inactive = no consistent shift, or siRNA harmful alone", "note": "This is a random part of about 23,000 reagents. 455 of all reagents (2%) count as active. 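Active includes both protection and sensitisation; some change values fall well beyond the stated -50 to +50 range.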 Unmarked entries are inactive. Not all columns of the deposit are shown. No sequences are given here. Not stated in the record: the amount of reagent."}
The opening 3 records as a preview:
{"Gene": "LOC441896", "two-siRNA summed score (-2 to +2)": 0, "mean protection from cisplatin (shift in death) (%)": 8.3}
{"Gene": "LOC389415", "two-siRNA summed score (-2 to +2)": 0, "mean protection from cisplatin (shift in death) (%)": -0.6}
{"Gene": "LOC441559", "two-siRNA summed score (-2 to +2)": 0, "mean protection from cisplatin (shift in death) (%)": 21.2}

The listing, repeating the preview:
{"Gene": "LOC441896", "two-siRNA summed score (-2 to +2)": 0, "mean protection from cisplatin (shift in death) (%)": 8.3}
{"Gene": "LOC389415", "two-siRNA summed score (-2 to +2)": 0, "mean protection from cisplatin (shift in death) (%)": -0.6}
{"Gene": "LOC441559", "two-siRNA summed score (-2 to +2)": 0, "mean protection from cisplatin (shift in death) (%)": 21.2}
{"Gene": "LOC389936", "two-siRNA summed score (-2 to +2)": 1, "mean protection from cisplatin (shift in death) (%)": 19.8}
{"Gene": "BUD31", "two-siRNA summed score (-2 to +2)": 1, "mean protection from cisplatin (shift in death) (%)": -0.2}
{"Gene": "LOC401005", "two-siRNA summed score (-2 to +2)": 0, "mean protection from cisplatin (shift in death) (%)": 6.6}
{"Gene": "LOC440259", "two-siRNA summed score (-2 to +2)": 0, "mean protection from cisplatin (shift in death) (%)": 20.4}
{"Gene": "KIAA1076", "two-siRNA summed score (-2 to +2)": 0, "mean protection from cisplatin (shift in death) (%)": 0.3}
{"Gene": "RIPPLY2", "two-siRNA summed score (-2 to +2)": 0, "mean protection from cisplatin (shift in death) (%)": 12.2}
{"Gene": "DKFZp313P036", "two-siRNA summed score (-2 to +2)": 0, "mean protection from cisplatin (shift in death) (%)": 5.1}
{"Gene": "MLLT11", "two-siRNA summed score (-2 to +2)": 0, "mean protection from cisplatin (shift in death) (%)": 7.9}
{"Gene": "OR5B2", "two-siRNA summed score (-2 to +2)": 1, "mean protection from cisplatin (shift in death) (%)": 14.8}
{"Gene": "LOC389311", "two-siRNA summed score (-2 to +2)": 1, "mean protection from cisplatin (shift in death) (%)": 15}
{"Gene": "H2BC13", "two-siRNA summed score (-2 to +2)": 0, "mean protection from cisplatin (shift in death) (%)": 17.4}
{"Gene": "LINC00161", "two-siRNA summed score (-2 to +2)": 1, "mean protection from cisplatin (shift in death) (%)": 5.2}
{"Gene": "ZW10", "two-siRNA summed score (-2 to +2)": 0, "mean protection from cisplatin (shift in death) (%)": -4.6}
{"Gene": "CCDC13", "two-siRNA summed score (-2 to +2)": -1, "mean protection from cisplatin (shift in death) (%)": -7.6}
{"Gene": "NPPC", "two-siRNA summed score (-2 to +2)": 0, "mean protection from cisplatin (shift in death) (%)": 11.7}
{"Gene": "UCP1", "two-siRNA summed score (-2 to +2)": 0, "mean protection from cisplatin (shift in death) (%)": -15.1}
{"Gene": "AKR1E2", "two-siRNA summed score (-2 to +2)": 1, "mean protection from cisplatin (shift in death) (%)": 17.8}
{"Gene": "LOC389801", "two-siRNA summed score (-2 to +2)": 0, "mean protection from cisplatin (shift in death) (%)": 3.6}
{"Gene": "LOC390842", "two-siRNA summed score (-2 to +2)": 0, "mean protection from cisplatin (shift in death) (%)": 14.3}
{"Gene": "IFFO1", "two-siRNA summed score (-2 to +2)": 0, "mean protection from cisplatin (shift in death) (%)": -1.8}
{"Gene": "NCLN", "two-siRNA summed score (-2 to +2)": 0, "mean protection from cisplatin (shift in death) (%)": 1.1}
{"Gene": "LOC401308", "two-siRNA summed score (-2 to +2)": 0, "mean protection from cisplatin (shift in death) (%)": 3.2}
{"Gene": "LOC441456", "two-siRNA summed score (-2 to +2)": 0, "mean protection from cisplatin (shift in death) (%)": 0.6}
{"Gene": "HES2", "two-siRNA summed score (-2 to +2)": 0, "mean protection from cisplatin (shift in death) (%)": 14.5}
{"Gene": "SHISAL1", "two-siRNA summed score (-2 to +2)": 0, "mean protection from cisplatin (shift in death) (%)": -3.3}
{"Gene": "TATDN1", "two-siRNA summed score (-2 to +2)": 0, "mean protection from cisplatin (shift in death) (%)": -0.5}
{"Gene": "LOC441815", "two-siRNA summed score (-2 to +2)": 0, "mean protection from cisplatin (shift in death) (%)": 11.2}
{"Gene": "UMPS", "two-siRNA summed score (-2 to +2)": 0, "mean protection from cisplatin (shift in death) (%)": 0.6}
